Columns and labels:
[1] = test system: 4T1-mCherry murine mammary adenocarcinoma in the tibia; settings: female, Balb/c, mouse, in vivo
[2] = test system: murine 4T1 mammary adenocarcinoma cell line; assay: 4T1 proliferation assay (MTT); type: cell-based
[3] = test system: human MDA-MB-231 mammary adenocarcinoma cell line; assay: MDA-MB-231 proliferation assay (MTT); type: cell-based
[4] = test system: PC3 human prostate adenocarcinoma cells; assay: PC3 cell viability / proliferation assay (MTT); type: cell-based
Experimental: PC3 cells were plated onto 96 well plate (5×10^3 cells/well) in DMEM supplemented with 5% FBS and incubated for 24 h (37° C.; 5% CO2). […] Following incubation, PC3 cells were counted by MTT.

NCCCC(O)(P(=O)(O)O)P(=O)(O)O [ALN, (4-amino-1-hydroxybutylidene)bisphosphonic acid]
toxicity: body weight change and mortality [1]: very toxic and caused severe body weight loss and mortality within 2 injections
toxicity to 4T1 cells [2]: toxic only at the highest concentration tested of 10 μM
toxicity to MDA-MB-231 cells [3]: toxic only at the highest concentration tested of 10 μM
toxicity to PC3 cells [4]: toxic only at the highest concentration tested of 10 μM
